# Assay results published in patent publication US7192742B2, “FO-6979 substances and process for producing the same” (Gakkou Houjin Kitasato Gakeun, priority 2001, dated 2007).
# Some results were stated once for a whole list of compounds, not compound by compound. Some compounds share one range, which may span the group rather than tell each member.
# Tested on: lipid droplets formation in mouse peritoneal macrophage
# Assay: Lipid droplets formation in mouse peritoneal macrophage (oil red O / hematoxylin staining)
# Type: cell-based
# Details: 40 μM, 14 hours
# Description: Inhibitory action of FO-6979 substances of the present invention on lipid droplets formation in mouse peritoneal macrophage is explained.
# Lipid droplets formation in mouse peritoneal macrophage was performed according to the method of Namatame et al. (J. Biochem. 125:319–327, 1999). Macrophage isolated from mouse peritoneal fluid was suspended at 2.0×10^6 cells/ml in Dulbecco's modified Eagle's medium containing 6.8% lipoprotein deficient serum (6.8% LPDS-DMEM) and aliquots (0.25 ml) were dispensed into a slide chamber (Nunc Co.).
# The chamber was incubated in a humidified 5% CO2 atmosphere incubator at 37° C. for 2 hours, after which the chamber was washed with Hank's solution to remove the unattached cells. The chamber was incubated in 6.8% LPDS-DMEM for 1 hour, and FO-6979-M3 substance (2.5 μl methanol solution) and liposome [consisting of phosphatidylcholine/phosphatidylserine/dicetylphosphate/cholesterol=10:10:2:15 (nmol) in 10 μl of 0.3 M glucose] were added therein, then incubated further 14 hours.
# The lipid droplets and nuclei were double stained with oilred O and hematoxylin, and observed by optical microscope (Olympus OpticalCo., Japan).
smiles,measurement,value
CCCCC(C)C1CC(=O)N[C@@H](C(C)C)C(=O)N[C@@H](C)C(=O)N[C@H](CC(C)C)C(=O)O1 (stereo partly shown) [FO-6979-M2 substance],decrease of lipid droplets accumulation,10–20%
